Results from the supplement of paper PMC6414424.
± gives the standard deviation of the averaged measurements. The list shows a part of the results.

The molecules below were run on APPdp1-6 iPSC-derived neurons (assay: pThr231Tau/total Tau ratio Z-score vs DMSO vehicle wells; higher = more pThr231Tau relative to total Tau). Conditions: 5 µM; treatment time 5 days.

Row | Structure (SMILES) | pThr231Tau/total Tau ratio Z-score
1 | CC(=O)Oc1ccc2c(c1)CC[C@@H]1[C@@H]2CC[C@]2(C)[C@@H](O)CC[C@@H]12 [ESTRADIOL ACETATE    Therap cat: estrogen] | 0.0748 ± 1.2
2 | COc1ccc(C(Cl)=C(c2ccc(OC)cc2)c2ccc(OC)cc2)cc1 [Prestw-757] | -0.738 ± 0.076
3 | Cc1oncc1C(=O)Nc1ccc(C(F)(F)F)cc1 [Prestw-772] | 0.285 ± 0.1
4 | CC1CC(OC(=O)C(O)c2ccccc2)CC(C)(C)C1 (stereo not drawn) | -0.466 ± 1.2
5 | CCOC(=O)[C@H](CCc1ccccc1)N[C@@H](C)C(=O)N1Cc2ccccc2C[C@H]1C(=O)O [Prestw-927] | -0.78 ± 0.15
6 | CC(CCc1ccccc1)NCC(O)c1ccc(O)c(C(N)=O)c1 (stereo not drawn) [Prestw-277] | -0.537 ± 0.28
7 | Cc1onc(-c2c(Cl)cccc2Cl)c1C(=O)N[C@@H]1C(=O)N2[C@@H]1SC(C)(C)[C@@H]2C(=O)O [Prestw-450] | 2.32 ± 0.43
8 | CN1C(C)(C)CCCC1(C)C [Prestw-683] | 0.629 ± 0.2
9 | CC[N+](C)(C)Cc1ccccc1Br [Prestw-942] | -0.264 ± 0.26
10 | C[N+](C)(C)CCCCCC[N+](C)(C)C [Prestw-38] | 0.475 ± 0.89
11 | Cc1cc2c(cc1S(N)(=O)=O)S(=O)(=O)CCC2 [Prestw-11] | -0.243 ± 0.28
12 | Clc1cnccn1 [Prestw-1087] | 0.00912 ± 1.1
13 | NCCNCCNCCNCCN [Prestw-1387] | -1.07 ± 0.24
14 | NC(=O)c1cc[n+](CC2=C(C(=O)O)N3C(=O)[C@@H](NC(=O)[C@@H](c4ccccc4)S(=O)(=O)[O-])[C@H]3SC2)cc1 [Prestw-814] | 6.74 ± 9
15 | CC1(C)S[C@@H]2[C@H](NC(=O)[C@H](NC(=O)N3CCNC3=O)c3ccccc3)C(=O)N2[C@H]1C(=O)O [Prestw-821] | -0.444 ± 0.77
16 | CCCCCCc1ccc(O)cc1O.Nc1c2ccccc2nc2ccccc12 [ACRISORCIN    Therap cat: antifungal] | -0.0748 ± 0.49
17 | Nc1nc(Cl)nc2c1ncn2[C@H]1C[C@H](O)[C@@H](CO)O1 [Prestw-1484] | -0.407 ± 1.2
18 | CN[C@@H]1[C@H](O[C@H]2[C@H](O[C@H]3[C@H](O)[C@@H](O)[C@H](N=C(N)N)[C@@H](O)[C@@H]3N=C(N)N)O[C@@H](C)[C@]2(O)C=O)O[C@@H](CO)[C@H](O)[C@H]1O [Prestw-321] | -0.625 ± 0.74
19 | Cc1cccc(C(=O)O)c1O [3-Cresotinic acid] | -1 ± 1.2
20 | O=C1OC2(C3=C[C](Br)C([O-])=C=C3Oc3cc([O-])c(Br)cc32)c2ccccc21.[Hg+].[Na+].[Na+].[OH-] (stereo not drawn) [MERBROMIN    Therap cat:  Antibacterial] | -1.18 ± 0.27
21 | OCCOCCN1CCN(C2=Nc3ccccc3Sc3ccccc32)CC1 [Prestw-1323] | -0.436 ± 0.22
22 | CC1(C)S[C@@H]2[C@H](NC(=O)[C@H](N)c3ccc(O)cc3)C(=O)N2[C@H]1C(=O)O [Prestw-357] | 0.641 ± 0.57
23 | COc1cccc2c1C(=O)c1c(O)c3c(c(O)c1C2=O)C[C@@](O)(C(=O)CO)C[C@@H]3O[C@H]1C[C@H](N)[C@H](O)[C@H](C)O1 [Prestw-438] | -0.134 ± 3.8
24 | CCC(=O)O[C@@H](O[P@](=O)(CCCCc1ccccc1)CC(=O)N1C[C@H](C2CCCCC2)C[C@H]1C(=O)O)C(C)C [Prestw-1423] | -0.115 ± 0.37

Reprinted at random: two entries already listed.
Row | Structure (SMILES) | pThr231Tau/total Tau ratio Z-score
21 | OCCOCCN1CCN(C2=Nc3ccccc3Sc3ccccc32)CC1 [Prestw-1323] | -0.436 ± 0.22
1 | CC(=O)Oc1ccc2c(c1)CC[C@@H]1[C@@H]2CC[C@]2(C)[C@@H](O)CC[C@@H]12 [ESTRADIOL ACETATE    Therap cat: estrogen] | 0.0748 ± 1.2

(next part)

Row | Structure (SMILES) | pThr231Tau/total Tau ratio Z-score
25 | CCCCC(=O)O[C@H]1CC[C@H]2[C@@H]3CCc4cc(O)ccc4[C@H]3CC[C@]12C [Prestw-1473] | 0.251 ± 0.29
26 | COC(=O)Nc1nc2ccc(C(=O)c3ccccc3)cc2[nH]1 [Prestw-217] | -3.69 ± 1.3
27 | N=C(N)c1ccc(OCCCCCOc2ccc(C(=N)N)cc2)cc1 [Prestw-553] | -0.497 ± 0.61
28 | Fc1ccc(C(c2ccc(F)cc2)N2CCN(C/C=C/c3ccccc3)CC2)cc1 [Prestw-312] | -0.223 ± 0.49
29 | CN1CCc2c(c3ccccc3n2Cc2ccccc2)C1 [Prestw-455] | -0.335 ± 0.036
30 | CN1CCc2c(c3ccccc3n2Cc2ccccc2)C1 | 0.407 ± 0.078
31 | COc1ccc(CCN(C)CCCC(C#N)(c2ccc(OC)c(OC)c2)C(C)C)cc1OC (stereo not drawn) [Prestw-141] | -0.648 ± 0.22
32 | C[N+]1(CCCCC[N+]2(C)CCCC2)CCCC1 [Prestw-188] | 0.77 ± 0.5
33 | CO/N=C(\C(=O)N[C@@H]1C(=O)N2C(C(=O)OCOC(=O)C(C)(C)C)=C(/C=C\c3scnc3C)CS[C@H]12)c1csc(N)n1 [CEFDITORIN PIVOXIL, antibacterial] | 0.88 ± 1.1
34 | Oc1ncnc2[nH]ncc12 [Prestw-1213] | -1.16 ± 2
35 | O=C(O)c1cc(N=Nc2ccc(S(=O)(=O)Nc3ccccn3)cc2)ccc1O [Prestw-520] | 0.431 ± 0.25
36 | CNCCCC1c2ccccc2C=Cc2ccccc21 [Prestw-930] | 0.0238 ± 0.22
37 | CNCCCC1c2ccccc2C=Cc2ccccc21 [Prestw-254] | -0.357 ± 0.48
38 | CCCCCCC[N+](CC)(CC)CCCCc1ccc(Cl)cc1 [Prestw-319] | -4.07 ± 0.33
39 | C[C@]12CCC(=O)C=C1CC[C@@H]1[C@@H]2[C@@H](O)C[C@@]2(C)[C@H]1CC[C@]2(O)C(=O)CO [Prestw-447] | 0.501 ± 1.2
40 | C[C@H]1O[C@@H](O[C@H]2[C@@H](O)C[C@H](O[C@H]3[C@@H](O)C[C@H](O[C@H]4CC[C@@]5(C)[C@H](CC[C@@H]6[C@@H]5C[C@@H](O)[C@]5(C)[C@@H](C7=CC(=O)OC7)CC[C@]65O)C4)O[C@@H]3C)O[C@@H]2C)C[C@H](O)[C@@H]1O [Prestw-437] | -3.33 ± 0.89
41 | CC(C(=O)O)c1ccc(-c2ccccc2)c(F)c1 (stereo not drawn) [Prestw-917] | -1.01 ± 0.24
42 | O=C(OCC(O)CO)c1ccccc1Nc1ccnc2cc(Cl)ccc12 (stereo not drawn) [Prestw-293] | 0.817 ± 1.4
43 | CN(C)C(=O)C(CCN1CCC(O)(c2ccc(Cl)cc2)CC1)(c1ccccc1)c1ccccc1 [Prestw-144] | -0.344 ± 2.1
44 | Cc1cccc(C)c1NC(=O)C(C)N (stereo not drawn) [Prestw-1027] | -1.14 ± 0.8
45 | CCCCc1cc2ccccc2c(OCCN(C)C)n1 [Prestw-630] | -0.406 ± 0.53
46 | CC(C(=O)O)c1ccc2c(c1)[nH]c1ccc(Cl)cc12 (stereo not drawn) [Prestw-1261] | 0.196 ± 0.059
47 | Oc1c(Cl)cc(Cl)c(Cl)c1Cc1c(O)c(Cl)cc(Cl)c1Cl [Prestw-1472] | -4.3 ± 0.54
48 | COc1ccc(/C=C/C(=O)Nc2ccccc2C(=O)O)cc1OC [Prestw-1198] | -0.649 ± 0.35
